The results are deposited in PubChem (AID1159506; NCATS, 2015).

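Genome-wide siRNA knockdown in TC32 Ewing sarcoma cells, comparing luciferase light from an NR0B1-promoter reporter with a CMV-promoter reporter 48 hours after transfection.
Each siRNA was applied at 20 nM.
A z-score of the log NR0B1-over-CMV signal, less the median of siRNAs with the same seed; more negative means a stronger specific loss of the NR0B1 reporter.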

This is part of the screen; most of the strongest results are not listed here.
Sequences are the guide (antisense) strand, without overhang.

- AGUUGUAAAAAGUCUCUCC against CACNG6 : seed-corrected z-score 0.4626
- UUCAGAUAGCGAUCAAUGC against GPR87 : seed-corrected z-score 0.06805
- AUUGUACUCUAGCACGUGC against IMP3 : seed-corrected z-score 0.124
- UUGAGUACAAAAUAUACGG against YTHDC2 : seed-corrected z-score 0.1855
- AAAGCAAUUAGUAUAGGCC against ZNF705A : seed-corrected z-score 0.7315
- AGCCCAUACAGUGUCAGGC against TNXB : seed-corrected z-score 0.9114
- UCAGGAACUCUUGAUCUUG against CYP2B6 : seed-corrected z-score -1.001
- AUUCAUACAGGUCUGAGCG against TGFBRAP1 : seed-corrected z-score -1.268
- UUCAGGUAGAGAUCUGGGU against TACR1 : seed-corrected z-score 0.3673
- UAUGUACCAAGUGACCUUG against CD48 : seed-corrected z-score 0.53
- UACUAUUCCCGUUCACUGG against FOXC1 : seed-corrected z-score -0.3879
- UGCUUGUUGAUGUAGAGGC against SCML4 : seed-corrected z-score 0.1635
- UCCAUGACGAAGUACAGCC against PRKCA : seed-corrected z-score -0.9194
- UCACUGGUGACAAUAAGGG against CDC42EP3 : seed-corrected z-score -0.238
- AAAGUGAUAAUCUUUGUCG against NPM1 : seed-corrected z-score 0.7286
- UACUGGUUUCGGAUAUAUC against PDGFD : seed-corrected z-score 0.1726
- UACCCACUGAUUGCCUUCC against VRK2 : seed-corrected z-score -0.1509
- UAUAGUGCCUGUAUGGUAG against SESN3 : seed-corrected z-score 0.0004487
- AUAUCUUCUACAAUGGACC against FHDC1 : seed-corrected z-score 0.4464
- UCCUGUUUUGUAGUAACGC against UNKL : seed-corrected z-score 0.9634
- UCGUCCAUUACAGUCAUUG against RCHY1 : seed-corrected z-score -0.3443
- UAGGUAAACGUGACCGUCC against GPR12 : seed-corrected z-score 0.3326
- UCCACUACGAUCUCCAUGG against CLCN5 : seed-corrected z-score -1.114
- AUUCGUAACAUUCAUAGGG against RBAK : seed-corrected z-score 0.2552
- UAAGAGCUAAGGACGAGUG against OR5L2 : seed-corrected z-score -1.18
- UGUUGUUACCCAUUCGUGU against GCSH : seed-corrected z-score -1.349
- UAACGCAAGAAGAAAUGGG against TLCD1 : seed-corrected z-score -0.5029
- UCUUAUAUGAAUGUAAUCC against EIF1B : seed-corrected z-score 0.3473
- UGAAGGUCCAUGAAGAGCC against GPR173 : seed-corrected z-score 0.4536
- AUCCGGUCCAUGUUGAGCC against BCAT2 : seed-corrected z-score 0.2671
- UCAGGUAGAAAACAUCUGG against CHST4 : seed-corrected z-score 0.3292
- UUUGUAUCAACACCAUUCC against RPS6KC1 : seed-corrected z-score -0.4257

Once more, the final 3:

- AUCCGGUCCAUGUUGAGCC against BCAT2 | seed-corrected z-score 0.2671
- UCAGGUAGAAAACAUCUGG against CHST4 | seed-corrected z-score 0.3292
- UUUGUAUCAACACCAUUCC against RPS6KC1 | seed-corrected z-score -0.4257